PubChem BioAssay AID652054 (National Center for Advancing Translational Sciences (NCATS), 2013)
Screen size: about 360,000 compounds; about 9,100 (2.5%) were called active. The shares of active, inactive and inconclusive entries below differ from those in the screen. No stated cut-off is given here; in the data, active means max response below about -50%; inconclusive means no clear call, values can overlap the other calls; inactive means above that.

By UniProt entry, the sequences of proteins in these tests, tags left out.
UniProt P35462, whole entry, looked up: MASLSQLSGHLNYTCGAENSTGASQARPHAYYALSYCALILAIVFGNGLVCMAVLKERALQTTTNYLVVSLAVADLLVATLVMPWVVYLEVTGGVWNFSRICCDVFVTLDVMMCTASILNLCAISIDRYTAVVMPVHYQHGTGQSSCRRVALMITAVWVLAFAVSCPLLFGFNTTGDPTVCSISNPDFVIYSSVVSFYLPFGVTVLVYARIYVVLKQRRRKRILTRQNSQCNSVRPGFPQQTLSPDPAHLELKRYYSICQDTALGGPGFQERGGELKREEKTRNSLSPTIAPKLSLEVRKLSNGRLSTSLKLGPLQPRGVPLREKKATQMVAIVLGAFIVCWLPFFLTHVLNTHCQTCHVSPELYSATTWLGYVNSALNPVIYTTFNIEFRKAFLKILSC

Each molecule was assayed against D(3) dopamine receptor (Homo sapiens) (UniProt P35462) (assay: qHTS of D3 Dopamine Receptor Antagonist: qHTS). Details: D3R cells, DiscoveRx beta-arrestin luminescence, antagonist mode; active compounds read low.
Summary of the method: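 Cells plated overnight at 1500 cells/well, then exposed to library compounds with dopamine controls for 90 minutes at 37 degrees C. DiscoveRx reagent added for 30–60 minutes at room temperature; luminescence read, quantitative HTS format.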
On the % scale 0 is the no-effect control and ±100 the full control effect.

| SMILES | max response, negative = inhibition |
| --- | --- |
| Cc1ccc(S(=O)(=O)NN=Cc2ccccc2Cl)cc1 | inconclusive: -45.3% |
| CC12CCC(C(=O)NC(c3ccccc3)c3ccccc3)(OC1=O)C2(C)C (centres undefined) | inconclusive: -32.2% |
| Cc1cccc(NC(=O)c2cccc(NC(=O)c3ccco3)c2)c1 | inconclusive: -31% |
| COC(=O)C[C@@H]1C=C[C@H](NC(=O)Cc2ccccn2)[C@@H](CO)O1 | inactive: -1.29% |
| Cc1c(S(=O)(=O)Nc2cccc(Cl)c2)c(=O)n(C)c(=O)n1C | inactive: 33.8% |
| C/C(=N\O)c1c(O)cc(-c2ccccc2)n(-c2ccccc2)c1=O | inconclusive: -31.8% |
| COc1ccccc1/C=C/C(C)=O | inactive: -4.03% |
| O=CNc1cc(-c2ccc(C(=O)NC3CC3)cc2)cn2c(-c3ccccc3)cnc12 | inconclusive: -35.9% |
| O=C(Nc1ccc(Br)cc1)c1ccccc1CC[N+](=O)[O-] | inconclusive: -43.1% |
| Cc1ccc(S(=O)(=O)N2CCOC2CNC(=O)C(=O)NCc2ccc3c(c2)OCO3)cc1 (centres undefined) | inactive: -4.25% |
| COC(=O)c1sccc1NC(=O)c1csc(C)c1 | inconclusive: -33.1% |
| O=C(O)CCSC1CC(=O)N(c2ccccc2)C1=O (centres undefined) | inconclusive: -31.6% |
| CCc1nnc(SCC(=O)Nc2ccccc2)n1CC1CCCO1 (centres undefined) | inactive: -24.5% |
| O=C(N/N=C/c1c[nH]c2ccc(Br)cc12)c1ccn(Cc2ccc(Cl)cc2Cl)n1 | inconclusive: -32.6% |
| CCN1CCN(c2ccc(S(=O)(=O)N3CCCCC3)cc2NC(=O)COc2ccc(Cl)c(C)c2)CC1 | inconclusive: -45.1% |
| COc1ccc(CNc2nc3ccccc3n2CCN2CCCCC2)cc1 | active: -64.5% |
| COc1ccc(OC)c(-c2nc(C(=O)NC3CCN(Cc4ccccc4)CC3)cc3c2[nH]c2ccccc23)c1 | active: -125% |
| CS(=O)(=O)c1ccc(C(=O)OCC(=O)NCc2cccs2)cc1[N+](=O)[O-] | active: -59.7% |
| CCCCN(CCCC)c1ccc(C(=O)c2ccccc2C(=O)O)c(O)c1 | active: -81% |
| COc1ccc(OC)c(S(=O)(=O)N2CCC(C(=O)Nc3cccc(C)c3C)CC2)c1 | inactive: 16% |
| COc1ccc(C(=O)c2c(N)sc3c2CCN(C(=O)OC(C)(C)C)C3)cc1 | inactive: 1.03% |
| Cc1ncc(C23CC4CC(CC(C4)C2)C3)[nH]1 | active: -55.3% |
| CC(C)CC(=O)N1CCC(N2CCN(c3ccccc3)CC2)CC1 | inconclusive: -48.4% |
| CN(C)c1ccc(S(=O)(=O)N(C)C)cc1NC(=O)Cc1cccc2ccccc12 | inactive: -12.2% |

Two successive records already listed, for reference:

| SMILES | max response, negative = inhibition |
| --- | --- |
| O=CNc1cc(-c2ccc(C(=O)NC3CC3)cc2)cn2c(-c3ccccc3)cnc12 | inconclusive: -35.9% |
| O=C(Nc1ccc(Br)cc1)c1ccccc1CC[N+](=O)[O-] | inconclusive: -43.1% |
